System: injured neural tissue
Assay: NGS analysis of HCDR3s recovered after in vivo biopanning
Design: species or system C57Bl/6 mice
Details: for Enrichment Value: fold enrichment, Round 2 reads/Round 1 reads; for Frequency: observed after biopanning, NGS

| Sequence | Enrichment Value | Frequency |
| --- | --- | --- |
| AAPSWNNHVSY [SA2, 4, subacute injury] | 17.57 | 246 |
| SLYGSSRHTAPISF (cyclized on bromoacetamide scaffold with biotin) [A2, 2, acute stage; peptide cyclized on bromoacetamide scaffold containing biotin] | 22 | 22 |
| TAERDARTFQY (cyclized on bromoacetamide scaffold with biotin) [A1, 1, acute stage; peptide cyclized on bromoacetamide scaffold containing biotin] | 2.47 | 111 |
| TDLAVAHPVRY (cyclized on bromoacetamide scaffold with biotin) [SA1, 3, subacute stage; peptide cyclized on bromoacetamide scaffold containing biotin] | 49 | 638 |

— patent US11789029B2, “Temporal traumatic brain injury biomarkers and methods of use thereof” (ARIZONA BOARD OF REGENTS ON BEHALF OF ARIZONA STATE …, priority 2019, dated 2023)
